Source: patent US20250020650A1, “METHOD OF PREDICTING A PATIENT'S BENEFIT FROM THERAPY WITH AN IMMUNE CHECKPOINT INHIBITOR” (EBERHARD KARLS UNIVERSITAET TUEBINGEN MEDIZINISCHE FAKULTAET, priority 2021, published 2025)
Results are given in words; binding and its absence hold for the method and conditions named. Binding seen in cells or lysates may run through a third protein. Some binding calls cover weakened binding; strength is not graded here.

Sequences of proteins named here, by UniProt entry; tags and fusion partners are left off. Residues count along the entry.
UniProt P02751, residues 32-2477: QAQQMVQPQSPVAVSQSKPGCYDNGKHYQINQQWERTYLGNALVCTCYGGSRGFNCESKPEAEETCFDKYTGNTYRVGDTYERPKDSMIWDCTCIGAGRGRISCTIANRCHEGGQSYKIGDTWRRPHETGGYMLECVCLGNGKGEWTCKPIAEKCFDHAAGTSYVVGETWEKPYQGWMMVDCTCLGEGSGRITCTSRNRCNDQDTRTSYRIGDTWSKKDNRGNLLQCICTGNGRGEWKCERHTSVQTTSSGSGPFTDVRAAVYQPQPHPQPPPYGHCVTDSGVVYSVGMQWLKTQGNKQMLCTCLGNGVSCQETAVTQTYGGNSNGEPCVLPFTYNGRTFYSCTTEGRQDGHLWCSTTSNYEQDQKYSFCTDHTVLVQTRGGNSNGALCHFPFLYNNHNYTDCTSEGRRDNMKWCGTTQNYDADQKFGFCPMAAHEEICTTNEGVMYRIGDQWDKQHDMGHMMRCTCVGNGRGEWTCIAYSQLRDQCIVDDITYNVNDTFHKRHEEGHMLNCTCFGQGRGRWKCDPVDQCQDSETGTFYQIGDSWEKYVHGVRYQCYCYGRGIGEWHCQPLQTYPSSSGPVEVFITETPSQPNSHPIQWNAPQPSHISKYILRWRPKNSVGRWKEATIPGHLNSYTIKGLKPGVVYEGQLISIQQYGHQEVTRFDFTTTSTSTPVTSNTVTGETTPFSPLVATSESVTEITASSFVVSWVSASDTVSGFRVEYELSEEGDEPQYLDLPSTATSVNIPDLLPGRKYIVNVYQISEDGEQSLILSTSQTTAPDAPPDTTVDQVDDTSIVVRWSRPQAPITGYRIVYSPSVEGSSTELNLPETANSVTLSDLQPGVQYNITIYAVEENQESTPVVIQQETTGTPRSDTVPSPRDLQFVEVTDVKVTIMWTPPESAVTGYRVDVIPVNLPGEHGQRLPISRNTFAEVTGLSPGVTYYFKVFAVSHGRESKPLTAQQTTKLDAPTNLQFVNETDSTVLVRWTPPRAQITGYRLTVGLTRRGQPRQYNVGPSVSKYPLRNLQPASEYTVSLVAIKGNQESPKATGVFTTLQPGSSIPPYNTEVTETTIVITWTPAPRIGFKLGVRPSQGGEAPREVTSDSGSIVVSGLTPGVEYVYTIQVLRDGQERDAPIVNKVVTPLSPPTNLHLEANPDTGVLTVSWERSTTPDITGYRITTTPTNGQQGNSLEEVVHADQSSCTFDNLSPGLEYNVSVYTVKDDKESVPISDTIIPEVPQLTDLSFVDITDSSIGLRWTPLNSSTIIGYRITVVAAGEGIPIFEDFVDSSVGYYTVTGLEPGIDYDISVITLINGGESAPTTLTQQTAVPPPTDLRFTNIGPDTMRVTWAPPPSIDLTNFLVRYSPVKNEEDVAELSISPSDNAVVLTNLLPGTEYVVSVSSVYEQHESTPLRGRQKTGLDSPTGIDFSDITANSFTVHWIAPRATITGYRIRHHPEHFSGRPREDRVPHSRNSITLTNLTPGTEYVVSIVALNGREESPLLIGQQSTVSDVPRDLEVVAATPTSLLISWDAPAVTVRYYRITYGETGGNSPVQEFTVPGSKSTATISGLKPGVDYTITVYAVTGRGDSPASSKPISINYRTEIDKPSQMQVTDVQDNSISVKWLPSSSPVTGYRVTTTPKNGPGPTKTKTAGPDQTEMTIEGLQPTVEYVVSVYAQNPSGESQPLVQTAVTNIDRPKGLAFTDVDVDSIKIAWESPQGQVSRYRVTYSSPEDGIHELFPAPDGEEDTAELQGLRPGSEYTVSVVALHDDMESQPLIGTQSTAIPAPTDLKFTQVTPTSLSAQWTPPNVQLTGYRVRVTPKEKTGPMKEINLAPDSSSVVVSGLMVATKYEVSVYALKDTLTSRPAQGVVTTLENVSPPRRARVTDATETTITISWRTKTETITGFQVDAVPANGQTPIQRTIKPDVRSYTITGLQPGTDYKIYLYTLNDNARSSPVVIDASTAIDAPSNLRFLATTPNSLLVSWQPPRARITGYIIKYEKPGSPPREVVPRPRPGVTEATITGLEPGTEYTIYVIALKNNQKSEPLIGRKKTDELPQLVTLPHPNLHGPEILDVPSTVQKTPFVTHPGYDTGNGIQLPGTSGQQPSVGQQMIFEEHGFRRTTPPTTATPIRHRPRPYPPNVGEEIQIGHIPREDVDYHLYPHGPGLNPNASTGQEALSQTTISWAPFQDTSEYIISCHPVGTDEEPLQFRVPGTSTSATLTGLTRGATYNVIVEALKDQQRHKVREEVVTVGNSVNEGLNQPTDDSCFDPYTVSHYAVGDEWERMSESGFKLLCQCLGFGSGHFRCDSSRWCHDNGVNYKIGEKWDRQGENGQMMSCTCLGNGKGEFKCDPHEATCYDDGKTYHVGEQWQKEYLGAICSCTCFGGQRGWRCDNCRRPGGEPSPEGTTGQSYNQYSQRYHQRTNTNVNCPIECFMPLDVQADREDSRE
UniProt Q9NZQ7, residues 19-290: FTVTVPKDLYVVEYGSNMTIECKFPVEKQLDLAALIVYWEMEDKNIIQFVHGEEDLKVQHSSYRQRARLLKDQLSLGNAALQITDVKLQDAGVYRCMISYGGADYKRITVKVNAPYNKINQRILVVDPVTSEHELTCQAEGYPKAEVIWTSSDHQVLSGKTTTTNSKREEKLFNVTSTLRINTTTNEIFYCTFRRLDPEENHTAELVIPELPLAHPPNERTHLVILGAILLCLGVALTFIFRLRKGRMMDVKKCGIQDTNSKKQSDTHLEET

Molecular target: fibronectin 1 (on NSCLC tumor cells) (human) (UniProt P02751)
Experiment: in situ proximity ligation assay on HOP-62 and NCI-H23 cells (anti-PD-L1 28-8, anti-fibronectin P1H11)

## programmed cell death 1 ligand 1 (PD-L1) (from UniProt Q9NZQ7 19-290)
  binding: binds
